PubChem BioAssay AID1671195, Yale University | 2021
Aim: 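Regulators of LDL receptor activity judged by labelled LDL uptake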 (primary screen). Cell system: human Huh7 hepatoma cells. Knock-down reagent: siRNA pool against human genes, 18 nM. Time to read-out: about 2 to 2.5 days of knockdown, then 8 h LDL uptake. Conditions: DiI-labelled LDL at 30 µg/ml for 8 h, in lipoprotein-deficient serum medium. Measurement: 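Per-cell DiI-LDL intensity by automated imaging; well means scaled to the plate median and given as a robust z-score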. Reading the numbers: robust z-score: higher = more LDL uptake after knockdown. Active means: 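Active when two or more replicates show a robust z-score above 2 or below -2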.
Here is a random part of about 22,000 deposited reagents. About 1,510 of them (6.9%) count as active. 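Active includes knockdowns raising or lowering LDL uptake; positive z-scores mean more uptake, negative mean less.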 Entries without a mark were called inactive. The numbers tell different reagents against one gene apart.

{"Target gene": "RAP2A (RAP2A, member of RAS oncogene family)", "reagent no.": 1, "robust z-score, replicate 1": 0.45, "robust z-score, replicate 2": -0.262, "robust z-score, replicate 3": 2.67}
{"Target gene": "LOC402232 (retired record)", "reagent no.": 1, "robust z-score, replicate 1": -0.209, "robust z-score, replicate 2": -0.15, "robust z-score, replicate 3": -0.711}
{"Target gene": "LOC440899 (retired record)", "reagent no.": 1, "robust z-score, replicate 1": "2.17 (active)", "robust z-score, replicate 2": 1.75, "robust z-score, replicate 3": 2.22}
{"Target gene": "HGS (hepatocyte growth factor-regulated tyrosine kinase substrate)", "reagent no.": 1, "robust z-score, replicate 1": 0.107, "robust z-score, replicate 2": -0.2, "robust z-score, replicate 3": -0.13}
{"Target gene": "MYO18B (myosin XVIIIB)", "reagent no.": 1, "robust z-score, replicate 1": 1.87, "robust z-score, replicate 2": 2.5, "robust z-score, replicate 3": 0.163}
{"Target gene": "PER3 (period circadian regulator 3)", "reagent no.": 1, "robust z-score, replicate 1": -1.32, "robust z-score, replicate 2": -0.497, "robust z-score, replicate 3": -1.19}
{"Target gene": "HDC (histidine decarboxylase)", "reagent no.": 1, "robust z-score, replicate 1": -0.461, "robust z-score, replicate 2": 2.27, "robust z-score, replicate 3": -0.0975}
{"Target gene": "BLZF1 (basic leucine zipper nuclear factor 1)", "reagent no.": 1, "robust z-score, replicate 1": -0.108, "robust z-score, replicate 2": -0.286, "robust z-score, replicate 3": 0.419}
{"Target gene": "TOPAZ1 (testis and ovary specific TOPAZ 1)", "reagent no.": 1, "robust z-score, replicate 1": 1.49, "robust z-score, replicate 2": 1.37, "robust z-score, replicate 3": 1.59}
{"Target gene": "MAIP1 (matrix AAA peptidase interacting protein 1)", "reagent no.": 1, "robust z-score, replicate 1": 0.353, "robust z-score, replicate 2": 0.129, "robust z-score, replicate 3": 0.0946}
{"Target gene": "BSG (basigin (Ok blood group))", "reagent no.": 1, "robust z-score, replicate 1": -0.411, "robust z-score, replicate 2": 0.0364, "robust z-score, replicate 3": -0.405}
{"Target gene": "LOC286177", "reagent no.": 1, "robust z-score, replicate 1": -1.05, "robust z-score, replicate 2": -1.07, "robust z-score, replicate 3": -1.23}
{"Target gene": "WDR62 (WD repeat domain 62)", "reagent no.": 1, "robust z-score, replicate 1": -0.521, "robust z-score, replicate 2": -0.398, "robust z-score, replicate 3": -0.335}
{"Target gene": "LINC00944 (long independently transcribed non-coding RNA 944)", "reagent no.": 1, "robust z-score, replicate 1": -0.85, "robust z-score, replicate 2": -0.699, "robust z-score, replicate 3": -0.359}
{"Target gene": "PCSK6 (proprotein convertase subtilisin/kexin type 6)", "reagent no.": 1, "robust z-score, replicate 1": -0.367, "robust z-score, replicate 2": 0.746, "robust z-score, replicate 3": 0.187}
{"Target gene": "DNAH14 (dynein axonemal heavy chain 14)", "reagent no.": 1, "robust z-score, replicate 1": 0.436, "robust z-score, replicate 2": 0.804, "robust z-score, replicate 3": 1.01}
{"Target gene": "DNAH14 (dynein axonemal heavy chain 14)", "reagent no.": 2, "robust z-score, replicate 1": -0.929, "robust z-score, replicate 2": -0.526, "robust z-score, replicate 3": -0.633}
{"Target gene": "TIMP1 (TIMP metallopeptidase inhibitor 1)", "reagent no.": 1, "robust z-score, replicate 1": 0.0396, "robust z-score, replicate 2": 1.3, "robust z-score, replicate 3": 0.211}
{"Target gene": "LINC01622 (long independently transcribed non-coding RNA 1622)", "reagent no.": 1, "robust z-score, replicate 1": 0.782, "robust z-score, replicate 2": 1.16, "robust z-score, replicate 3": 0.949}
{"Target gene": "LOC389276 (retired record)", "reagent no.": 1, "robust z-score, replicate 1": -1.1, "robust z-score, replicate 2": -0.633, "robust z-score, replicate 3": -0.46}
{"Target gene": "GKN2 (gastrokine 2)", "reagent no.": 1, "robust z-score, replicate 1": -0.943, "robust z-score, replicate 2": -1.68, "robust z-score, replicate 3": -1.17}
{"Target gene": "CCDC171 (coiled-coil domain containing 171)", "reagent no.": 1, "robust z-score, replicate 1": -0.211, "robust z-score, replicate 2": -0.154, "robust z-score, replicate 3": -0.329}
{"Target gene": "KCNH6 (potassium voltage-gated channel subfamily H member 6)", "reagent no.": 1, "robust z-score, replicate 1": -1.08, "robust z-score, replicate 2": -1.56, "robust z-score, replicate 3": -0.645}
{"Target gene": "ANKRD34C (ankyrin repeat domain 34C)", "reagent no.": 1, "robust z-score, replicate 1": 1.07, "robust z-score, replicate 2": 0.138, "robust z-score, replicate 3": 0.511}

4 entries already listed, arranged by “robust z-score, replicate 2”, ascending.
{"Target gene": "HGS (hepatocyte growth factor-regulated tyrosine kinase substrate)", "reagent no.": 1, "robust z-score, replicate 1": 0.107, "robust z-score, replicate 2": -0.2, "robust z-score, replicate 3": -0.13}
{"Target gene": "LOC402232 (retired record)", "reagent no.": 1, "robust z-score, replicate 1": -0.209, "robust z-score, replicate 2": -0.15, "robust z-score, replicate 3": -0.711}
{"Target gene": "LOC440899 (retired record)", "reagent no.": 1, "robust z-score, replicate 1": "2.17 (active)", "robust z-score, replicate 2": 1.75, "robust z-score, replicate 3": 2.22}
{"Target gene": "MYO18B (myosin XVIIIB)", "reagent no.": 1, "robust z-score, replicate 1": 1.87, "robust z-score, replicate 2": 2.5, "robust z-score, replicate 3": 0.163}
